Results taken from ChEMBL document CHEMBL4251607, “Antagonists of the adenosine A2A receptor based on a 2-arylbenzoxazole scaffold: Investigation of the C5- and C7-positions to enhance affinity” (Eur J Med Chem, 2018).
Converted amounts (≈) assume the structure as drawn.

Tests used:
[1] = Protein binding in human plasma at 10 uM after 4 hrs
[2] = Half life in human liver microsomes at 0.1 uM
[3] = human, microsomes, 0.1 µM
[4] = physchem; settings: buffer, pH 7.4

Structure (SMILES): O=C(CN1CCCCC1)Nc1ccc2oc(-c3ccco3)nc2c1
- PPB [1]: 83%
- t1/2 [2]: 11 min
- CLH [3]: 630 µL/min/mg
- solubility at 24 h [4]: 184 µM (≈ 59.9 µg/mL)
